Experimental data as given in article doi:10.1101/2025.09.24.678097.
These are yes or no findings as the source states them, for the method shown. In cells and extracts the contact can be indirect. Some results given as binding are weak or reduced against the parent protein; the word gives no strength.

Chains of the proteins cited; added tags and fusions are not shown. Residues count along the entry.
UniProt Q15109, residues 23-404: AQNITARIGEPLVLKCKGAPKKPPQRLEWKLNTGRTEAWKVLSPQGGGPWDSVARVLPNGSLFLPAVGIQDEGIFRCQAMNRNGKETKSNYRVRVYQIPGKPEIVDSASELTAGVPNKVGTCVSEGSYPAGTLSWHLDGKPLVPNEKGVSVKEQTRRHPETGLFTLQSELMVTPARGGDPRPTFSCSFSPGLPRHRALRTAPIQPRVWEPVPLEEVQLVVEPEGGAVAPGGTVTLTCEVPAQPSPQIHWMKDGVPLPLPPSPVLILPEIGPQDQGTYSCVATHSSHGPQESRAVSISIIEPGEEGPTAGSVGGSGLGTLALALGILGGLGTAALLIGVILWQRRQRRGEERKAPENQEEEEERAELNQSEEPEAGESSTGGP

Biological target: receptor for advanced glycation end products (RAGE), His tag fused (UniProt Q15109)
Assay: pull-down; His-tagged RAGE in 293T lysate (50 mM NaH2PO4, 300 mM NaCl, 10 mM imidazole, pH 8.0) incubated with 2 ug CTSG at 4 C for 2 hours, captured on Ni-NTA agarose beads, washed 3 times, Western blot with anti-His tag and anti-CTSG; the paper calls it co-immunoprecipitation; only the binder purified

B1: Cathepsin G (enzyme, UniProt P08311 21-244)
chain: IIGGRESRPHSRPYMAYLQIQSPAGQSRCGGFLVREDFVLTAAHCWGSNINVTLGAHNIQRRENTQQHITARRAIRHPQYNQRTIQNDIMLLQLSRRVRRNRNVNPVALPRAQEGLRPGTLCTVAGWGRVSMRRGTDTLREVQLRVQRDRQCLRIFGSYDPRRQICVGDRRERKAAFKGDSGGPLLCNNVAHGIVSYGKSSGVPPEVFTRVSSFLPWIRTTMRS
**Q.** For B1, which binding is on record?
**A.** binds
